Experimental data: PubChem BioAssay AID493246 (Drosophila RNAi Screening Center, 2011)
In all, the deposit lists about 21,000 reagents; shown is an unselected part of those that have a named target and a result. Of all reagents, 429 (2%) got an active call. 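Values are raw and not normalised between plates; calls rest on per-plate z-scores that were not deposited.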 Reagents against one gene are numbered here. Reagent sequences are not shown. The record does not give: the amount of reagent, the time to read-out.

Test: 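Genome-wide search for dsRNAs that reduce cell number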 (primary screen)
System: Drosophila Kc and S2R+ cells
Reagent: long dsRNA against Drosophila genes
Detection: 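Raw, unnormalised count of remaining cells in each well; per-plate z-scores of cell number underlie the calls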
Direction: Kc cell number and S2R+ cell number: higher = more cells remaining
Rule for the call: 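Active when the per-plate z-score of cell number is 3 or more in the direction of fewer cells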

With knock-down of sas, the record shows Kc cell number, rep 1 = 1.58e6; Kc cell number, rep 2 = 1.72e6; S2R+ cell number, rep 1 = 1.29e6; S2R+ cell number, rep 2 = 1.39e6; inactive.
Silencing of CG12056 resulted in: Kc cell number, rep 1 = 5.65e5; S2R+ cell number, rep 1 = 8.57e5; inactive.
Silencing of CG1314 came out at: Kc cell number, rep 1 = 1.47e6; Kc cell number, rep 2 = 1.52e6; S2R+ cell number, rep 1 = 1.05e6; S2R+ cell number, rep 2 = 1.15e6; inactive.
Depletion of CG34331 gave: Kc cell number, rep 1 = 1.45e6; Kc cell number, rep 2 = 1.44e6; S2R+ cell number, rep 1 = 1.04e6; S2R+ cell number, rep 2 = 1.16e6; inactive.
Against RhoL, the values are Kc cell number, rep 1 = 1.44e6; Kc cell number, rep 2 = 1.52e6; S2R+ cell number, rep 1 = 1.20e6; S2R+ cell number, rep 2 = 1.30e6; inactive.
With knock-down of jing #1, the screen gave Kc cell number, rep 1 = 1.71e6; Kc cell number, rep 2 = 1.75e6; S2R+ cell number, rep 1 = 1.30e6; S2R+ cell number, rep 2 = 1.49e6; inactive.
jing #2 scored Kc cell number, rep 1 = 1.52e6; Kc cell number, rep 2 = 1.55e6; S2R+ cell number, rep 1 = 1.03e6; S2R+ cell number, rep 2 = 1.09e6; inactive.
Silencing of jing #3 gave: Kc cell number, rep 1 = 1.45e6; Kc cell number, rep 2 = 1.52e6; S2R+ cell number, rep 1 = 1.18e6; S2R+ cell number, rep 2 = 1.15e6; inactive.

Part of the list above, limited to “S2R+ cell number, rep 2”:
RhoL	1.30e6
jing #1	1.49e6

Further records follow:
Sgp gave Kc cell number, rep 1 = 1.26e6; Kc cell number, rep 2 = 1.27e6; S2R+ cell number, rep 1 = 9.65e5; S2R+ cell number, rep 2 = 9.47e5; inactive.
Against Rtc1 the deposit lists Kc cell number, rep 1 = 5.06e5; S2R+ cell number, rep 1 = 8.58e5; inactive.
For CG5921 #1, the values are Kc cell number, rep 1 = 1.20e6; Kc cell number, rep 2 = 1.42e6; S2R+ cell number, rep 1 = 1.11e6; S2R+ cell number, rep 2 = 1.19e6; inactive.
Against CG5921 #2, the entry reads Kc cell number, rep 1 = 1.51e6; Kc cell number, rep 2 = 1.51e6; S2R+ cell number, rep 1 = 1.08e6; S2R+ cell number, rep 2 = 1.24e6; inactive.
Against elg1 the deposit lists Kc cell number, rep 1 = 1.60e6; Kc cell number, rep 2 = 1.58e6; S2R+ cell number, rep 1 = 1.45e6; S2R+ cell number, rep 2 = 1.48e6; inactive.
With knock-down of CG7706 the results were Kc cell number, rep 1 = 1.57e6; Kc cell number, rep 2 = 1.74e6; S2R+ cell number, rep 1 = 1.12e6; S2R+ cell number, rep 2 = 1.23e6; inactive.
Depletion of CG4951 gave: Kc cell number, rep 1 = 6.14e5; S2R+ cell number, rep 1 = 8.29e5; inactive.
For CG10459 the deposit lists Kc cell number, rep 1 = 1.79e6; Kc cell number, rep 2 = 1.87e6; S2R+ cell number, rep 1 = 1.47e6; S2R+ cell number, rep 2 = 1.65e6; inactive.
Mic26-27 gave Kc cell number, rep 1 = 1.58e6; Kc cell number, rep 2 = 1.59e6; S2R+ cell number, rep 1 = 1.19e6; S2R+ cell number, rep 2 = 1.24e6; inactive.
Hou scored Kc cell number, rep 1 = 1.61e6; Kc cell number, rep 2 = 1.60e6; S2R+ cell number, rep 1 = 1.14e6; S2R+ cell number, rep 2 = 1.29e6; inactive.
With knock-down of CG32642, the screen gave Kc cell number, rep 1 = 1.40e6; Kc cell number, rep 2 = 1.75e6; S2R+ cell number, rep 1 = 1.11e6; S2R+ cell number, rep 2 = 1.22e6; inactive.
With knock-down of CG13159, the screen gave Kc cell number, rep 1 = 1.67e6; Kc cell number, rep 2 = 1.56e6; S2R+ cell number, rep 1 = 1.23e6; S2R+ cell number, rep 2 = 1.31e6; inactive.
After knock-down of CG15548, the record shows Kc cell number, rep 1 = 1.46e6; Kc cell number, rep 2 = 1.49e6; S2R+ cell number, rep 1 = 1.06e6; S2R+ cell number, rep 2 = 1.14e6; inactive.
